This note sets out measurements from PubChem BioAssay AID493014 (National Center for Advancing Translational Sciences (NCATS), 2011).

The other results are listed elsewhere or left out. The main result of the screen is listed elsewhere. These columns were measured beside it and carry no call. Most of these compounds were active or inconclusive in the main read-out, so they are no random draw. Potencies come from curve fits of mixed quality, noted in brackets.

A short description of the assay: qHTS Assay to Find Inhibitors of Chronic Active B-Cell Receptor Signaling. The settings on record: ABC-DLBCL IkBa-CBG/CBR reporter, luminescence ratio (green luciferase fused to IkBa over red control in TMD8 lymphoma cells), 4 h. The gist of the method: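 Doxycycline induced both beetle luciferases in TMD8 lymphoma cells; IKK-driven degradation limits the IkappaBalpha-fused green signal, while red luminescence normalises for cell number and nonspecific effects. Compounds tested up to 46 uM, 4 hrs.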
A general note: Quantitative high-throughput screening tests each substance at several concentrations.

[1] abbreviates: measured here: CBR red luminescence, cell number.
[2] abbreviates: measured here: IkBa-CBG green luminescence.

A word on the AC50: it is the midpoint of the concentration-response curve, whichever way the signal moves. With `COc1ccccc1CNC(=O)CSc1ccccc1`, the AC50 under setting [1] is 0.631 µM [rising, full curve, poor fit].

As to `COc1ccc(Cl)cc1NC(=O)c1noc(C)c1[N+](=O)[O-]`, the AC50 under setting [1] is 1.58 µM [falling, full curve]. As to `Cn1cnc2cc(NC(=O)c3cccs3)ccc21`, the AC50 under setting [1] is 8.91 µM [falling, partial curve, poor fit]. Same read-out and setting: for `CCC1(C)Nc2ccccc2C(=O)N1O` (configuration not stated) the value was 7.08 µM [falling, partial curve]; for `COc1cccc(CNC(=O)CN2C(=O)N(c3cccc(Cl)c3)S(=O)(=O)c3ccccc32)c1OC`, 6.31 µM [rising, single point]. `Cc1c(CN2CCC(CO)(CCOc3ccccc3)CC2)[nH]c2ccc(Cl)cc12`: the half-maximal activity concentration (AC50) reads like this: under setting [1], 2.51 µM [falling, full curve, poor fit]; under setting [2], 15.8 µM [rising, single point].

For `CCN1CCN(c2cc(C)c3cc(NC(=S)NCCCN4CCc5ccccc5C4)ccc3n2)CC1`, the AC50 under setting [1] was 8.91 µM [falling, partial curve, poor fit]. The same measure, in the same setting: for `CCCOc1ccccc1Nc1nnc(C)c(=O)[nH]1` the value was 25.9 µM [falling, single point]; for `COc1ccc(CNC(=O)C2CCCN(S(=O)(=O)c3c(C)n[nH]c3C)C2)cc1` (configuration not stated), 0.231 µM [falling, full curve, poor fit]; for `CC(=O)N/C(=C\c1ccccc1)C(=O)OCC(=O)Nc1ccc(C)c(S(=O)(=O)N(C)C)c1`, 0.731 µM [rising, full curve, poor fit]. Consider `OC(CN1CCNCC1)Cn1c2ccccc2c2ccccc21` (configuration not stated), for which the AC50 under setting [1] is 35.5 µM [falling, single point]. Still for that read-out and setting: under `CO/N=C(/CS(=O)(=O)c1ccc(C)cc1)c1ccc(OC)cc1` stands 7.31 µM [falling, single point]; under `Cc1cc(N2CCN(C)CC2)nc2ccc(NC(=S)N3CCCCC3)cc12`, 5.01 µM [falling, full curve, poor fit]; under `CC1=C(C#N)c2nc(N)c(C#N)c(C)c2/C1=C\c1ccc(C)cc1`, 1.41 µM [falling, partial curve, poor fit]. Consider `CC(C)(C)c1ccc(C(=O)/C=C2\NC(=O)CS2)cc1`, for which the AC50 under setting [1] is 0.398 µM [rising, full curve, poor fit]. With `COC(=O)Nc1ccc(S(=O)(=O)Nc2ccc(O)cc2)cc1`, the AC50 under setting [1] was 32.6 µM [rising, single point]. `Nc1nc(-c2ccccc2)[nH]c(=O)c1N`: the AC50 under setting [1] is 25.9 µM [falling, single point]. In the case of `CCOC(=O)CCc1nc2ccccc2[nH]c1=O`, the AC50 under setting [1] is 1.3 µM [rising, full curve, poor fit]. As for `Cc1c(Cl)cnc(NC(=O)COC(=O)c2ccc3c(c2)OCO3)c1Cl`, the AC50 under setting [1] is 6.51 µM [rising, single point].

For `CCC1(CC)Cc2ccccc2C(=O)N1`, the concentration at half-maximal activity (AC50) under setting [1] is 1 µM [rising, single point]. On to `CC(C)CC(c1nnnn1Cc1cccs1)N1CCN(c2nc3ccccc3s2)CC1` (configuration not stated), for which the concentration at half-maximal activity (AC50) under setting [1] was 0.116 µM [falling, full curve, poor fit]. Consider `Cc1ccccc1-c1noc(-c2ccccc2C(=O)NCc2ccco2)n1`, for which the AC50 under setting [1] is 35.5 µM [rising, single point]. The same measure, in the same setting: under `CCOC(=O)C1=C[C@]2(CC)CCCN3CCc4c(n1c1ccccc41)[C@@H]32` stands 1.3 µM [rising, full curve]; under `C=C(C)C(=O)N1CC2(CC(c3cccc(NC(=O)CCCCC)c3)=NO2)C[C@H]1C(N)=O` (some centres not stated), 10 µM [falling, partial curve]. Same read-out and setting: for `CCc1c(O)nc(SCC(=O)Nc2ccccc2)n(C(C)CC)c1=O` (configuration not stated) the value was 32.6 µM [falling, single point]. In the case of `CCOC(=O)C1=NOC(Cn2cc(C(C)=O)c(=O)[nH]c2=O)C1` (configuration not stated), under setting [1], the AC50 is 1.58 µM [rising, full curve, poor fit]. On the same count and under the same terms, under `Cc1ccc(NC(=O)NCc2ccc3c(c2)OCO3)cc1` stands 10.3 µM [falling, partial curve]; under `O=C(/C=C/c1ccc(F)cc1)c1ccc(N2CCOCC2)cc1`, 2.24 µM [rising, partial curve, poor fit].

As for `Cc1ccc(C(=O)OCC(=O)NCc2ccco2)cc1`, the AC50 under setting [1] is 4.61 µM [rising, full curve, poor fit]. `Cc1ccsc1C(=O)OCC(=O)N(C)C1CCCCC1`: the AC50 under setting [1] is 25.9 µM [falling, single point]. For the compound `CC(C)C(=O)n1nc(-c2cccnc2)nc1NCc1cccs1`, the AC50 under setting [1] is 15.8 µM [falling, partial curve]. The same measure, in the same setting: under `Cc1ccc(/C=C/C(=O)OCC(=O)NCCc2ccc(S(N)(=O)=O)cc2)o1` stands 29.1 µM [rising, single point]; under `CCOCCCNC(=O)c1cc2c(=O)n3cccc(C)c3nc2n1C`, 0.082 µM [rising, full curve, poor fit]. `O=C(COc1ccc(Br)cc1CNC1CCCCC1)NCCc1ccccc1`: under setting [1], the AC50 was 35.5 µM [falling, single point]. On to `COc1cccc2sc(N(CCCN(C)C)C(=O)c3sc4ccccc4c3Cl)nc12`, for which the AC50 under setting [1] is 18.4 µM [falling, single point]. Take `O=C(Nc1ccc(F)cc1)c1ccccc1`: the AC50 under setting [1] is 8.2 µM [falling, partial curve, poor fit].

`Cc1cc(C(=O)COc2ccccc2Cl)c(C)n1C1CC1`: the concentration at half-maximal activity (AC50) under setting [1] was 0.13 µM [rising, full curve, poor fit]. `CCOC(=O)N1CCN(S(=O)(=O)c2ccc3c(c2)OCC(=O)N3)CC1`: under setting [1], the concentration at half-maximal activity (AC50) is 2.82 µM [falling, partial curve, poor fit]. On the same count and under the same terms, for `COC(=O)[C@H](CC(C)C)NC(=O)NCCCc1ccccc1` the value was 18.4 µM [rising, partial curve, poor fit]. The same measure, in the same setting: for `Cc1cnc(NC(=O)c2ccc3c(c2)C(=O)N(Cc2ccco2)C3=O)s1` the value was 35.5 µM [falling, single point]; for `COC(=O)C1=C(C)N(C)C(=O)NC1c1ccc([N+](=O)[O-])o1` (configuration not stated), 11.2 µM [rising, partial curve, poor fit]. The same measure, in the same setting: for `Cc1cc(NC(=O)CCCSc2nc(-c3ccco3)cc(C(F)(F)F)n2)n(-c2ccccc2)n1` the value was 29.1 µM [falling, single point]; for `O=C(CCC1COc2ccccc2O1)Nc1cccnc1` (configuration not stated), 2.59 µM [rising, partial curve, poor fit]; for `O=C(/C=C/NNC(=O)c1cccc(Br)c1)c1ccccc1`, 23.1 µM [falling, single point].

Regarding `COc1cccc2cc(C(=O)Nc3ccccc3C(=O)N3CCOCC3)oc12`, the AC50 under setting [1] is 4.47 µM [falling, partial curve]. `O=C(CCN1C(=O)/C(=C/c2cccs2)SC1=S)Nc1ccccn1`: the AC50 under setting [1] is 2.51 µM [falling, partial curve]. On the same count and under the same terms, for `Cc1ccc(Cl)c(OCC(=O)NCc2ccco2)c1` the value was 0.82 µM [rising, full curve, poor fit]. Consider `CCCOc1ccc2c(c1)C(=NN=C(N)N)c1cc(OCCC)ccc1-2`, for which the concentration at half-maximal activity (AC50) is, setting by setting: under setting [1], 35.5 µM [falling, single point]; under setting [2], 22.4 µM [rising, partial curve, poor fit]. With `Cc1nc2cc(NCc3ccccc3O)ccc2n1Cc1ccccc1`, the AC50 under setting [1] is 3.98 µM [falling, full curve, poor fit].

In the case of `CC[C@H]1CN2CCc3cc(OC)c(OC)cc3C2C[C@@H]1C[C@H]1NCCc2cc(OC)c(OC)cc21` (some centres not stated), the AC50 under setting [1] was 0.164 µM [falling, full curve, poor fit]. The same measure, in the same setting: under `O=C(CN1C(=O)c2ccccc2C1=O)c1ccccc1` stands 0.116 µM [falling, full curve, poor fit]; under `CSc1nc2sc(-c3ccccc3)cc2c(=O)n1N`, 0.447 µM [rising, full curve, poor fit].

With `CCOC(=O)C1CCN(C(=O)/C=C/c2ccccc2)CC1`, under setting [1], the concentration at half-maximal activity (AC50) is 11.2 µM [falling, partial curve]. Still for that read-out and setting: for `O=C1NC(=Nc2ccc(O)cc2)S/C1=C/c1ccco1` the value was 3.98 µM [falling, partial curve]; for `N/C(=N\OC(=O)c1cccs1)c1ccc(Cl)cc1`, 5.01 µM [rising, partial curve, poor fit]. Consider `COc1ccccc1CN(C)CC(=O)Nc1ccc(Cl)cc1C(F)(F)F`, for which the AC50 under setting [1] is 0.00411 µM [rising, full curve, poor fit]. `COc1ccccc1CCC(=O)Nc1ccc2c(c1)CN(Cc1ccc(CO)o1)CC2`: under setting [1], the AC50 is 10 µM [falling, partial curve, poor fit]. Still for that read-out and setting: under `CCOC(=O)c1c(C)[nH]c(C(=O)COC(=O)C(C)N2C(=O)C3CCCCC3C2=O)c1C` (configuration not stated) stands 17.8 µM [falling, single point]. On the same count and under the same terms, for `CCOC(CCn1c(SCc2cccc([N+](=O)[O-])c2)nc2ccccc2c1=O)OCC` the value was 16.4 µM [rising, partial curve, poor fit].

Regarding `Cc1nc(N=C(N)N)nc2c(C)cccc12`, under setting [1], the AC50 is 10 µM [falling, partial curve]. As to `CCNc1nc(N)c(C(=O)c2ccc(Cl)s2)s1`, the AC50 is 1.16 µM [falling, full curve, poor fit] under setting [1] and 3.66 µM [rising, partial curve, poor fit] under setting [2]. As to `O=C(NCc1cccs1)c1cccnc1SCCS(=O)(=O)c1ccc(C(F)(F)F)cn1`, the concentration at half-maximal activity (AC50) under setting [1] was 10 µM [falling, partial curve, poor fit].

Turning to `CCC(=O)NC(=S)Nc1ccc(NC(=O)c2ccc([N+](=O)[O-])cc2)cc1`, the AC50 under setting [1] was 0.00517 µM [rising, full curve, poor fit]. As for `CC1=C(C(N)=O)C(c2cccs2)n2nc(-c3cccc(Cl)c3)nc2N1` (configuration not stated), under setting [1], the AC50 was 1.41 µM [falling, full curve].
